Test results reported in PubChem BioAssay AID1439 (NMMLSC, 2008).
Hit rate of the full screen: of about 220,000 compounds, about 770 (0.35%) were called active. The shares of active, inactive and inconclusive entries below differ from those in the screen. No stated cut-off is given here; in the data, active means binding response below about 49% or above about 150%; inconclusive means no clear call, values can overlap the other calls; inactive means in between.

The chains behind the UniProt entries cited, without tags or fusion partners.
UniProt P09471, whole entry, looked up: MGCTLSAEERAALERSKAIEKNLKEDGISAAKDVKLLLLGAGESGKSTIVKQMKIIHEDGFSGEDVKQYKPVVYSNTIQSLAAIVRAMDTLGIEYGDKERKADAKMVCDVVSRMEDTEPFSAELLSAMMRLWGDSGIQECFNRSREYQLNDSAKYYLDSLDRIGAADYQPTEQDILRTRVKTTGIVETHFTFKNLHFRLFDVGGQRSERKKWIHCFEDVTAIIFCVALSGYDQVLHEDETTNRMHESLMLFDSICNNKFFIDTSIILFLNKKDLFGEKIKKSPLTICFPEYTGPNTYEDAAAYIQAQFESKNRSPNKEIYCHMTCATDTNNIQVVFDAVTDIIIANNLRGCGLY

Target: Guanine nucleotide-binding protein G(o) subunit alpha (Homo sapiens) (UniProt P09471)
Assay: RGS7-Galphao binding modulators, primary screen, biochemical, multiplexed bead flow cytometry (AID 1439);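 further: fluorescent Galphao held in activated GDP-AlF4 state binding bead-coupled RGS7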
Conditions: at 10 µM, actives lie on both sides

Row | Structure (SMILES) | binding response (% of control)
1 | O=C(CN1C(=O)NC2(CCCCC2)C1=O)Nc1cccc(S(=O)(=O)N2CCOCC2)c1 | inconclusive: 116%
2 | O=C(O)CN1C(=O)/C(=C/c2ccc(N3CCCCC3)o2)SC1=S | inconclusive: 146%
3 | CN(C)C(=O)C[n+]1ccc(C(N)=O)cc1 | inconclusive: 145%
4 | COC(=O)c1cc(-n2cccc2)ccc1N1CCOCC1 | inconclusive: 137%
5 | CC1(C)Cc2nc(-c3ccccc3)nc(SCC(O)CO)c2CO1 (centres undefined) | inconclusive: 50.5%
6 | Cc1cc(C)c(NC(=O)c2cnn(C)c2)c(C)c1 | active: 2.05%
7 | COc1ccc(OC)c(Cc2nnc(CCC(=O)N3CCCCC3c3nccs3)o2)c1 (centres undefined) | inactive: 96.5%
8 | O=C(CSc1ccc2nnc(-c3ccc(Cl)cc3)n2n1)N1CCc2ccccc21 | inactive: 100%
9 | Cc1cc([N+](=O)[O-])nn1Cc1ccc(C(=O)N/N=C/c2ccc(N(C)C)cc2)cc1 | inconclusive: 127%
10 | CC1(C)C2CCC(C2)C1(C)NC(=O)C[N+](C)(C)C (centres undefined) | inconclusive: 52%
11 | CCc1nc2sc(C(C)=O)c(N)c2c2c1CCCC2 | inconclusive: 52.6%
12 | Fc1cc2[nH]cnc2cc1Cl | inconclusive: -8.44%
13 | CN(C)c1nc2ncn(Cc3ccccc3)c2c(=O)[nH]1 | inconclusive: 99.2%
14 | CCOC(=O)c1ccc(N2CCCCC2)c(NS(=O)(=O)c2cccc(C(F)(F)F)c2)c1 | inconclusive: 104%
15 | COc1ccc2sc(NC(=O)NC(=O)c3c(Cl)cccc3Cl)nc2c1 | inconclusive: 101%
16 | CCN1CCN(c2cc(C)nc(-c3ccccc3O)n2)CC1 | inconclusive: 51.1%
17 | S=C(Nc1ccc2[nH]ccc2c1)NC1CCCCC1 | inconclusive: 119%
18 | O=c1c2[nH]c3ccc(F)cc3c2nc2n1CCCS2 | inactive: 99%
19 | O=C(CNC(=O)c1ccc(-c2ccccc2)cc1)Nc1ccc(S(=O)(=O)Nc2ncccn2)cc1 | inconclusive: 43.2%
20 | CCc1cc2c(=O)n(Cc3ccco3)c(SCC(=O)NC3CCS(=O)(=O)C3)nc2s1 (centres undefined) | inconclusive: 88.9%

Row | Structure (SMILES) | binding response (% of control)
21 | CCCCCCCCc1nc(SCC(C)=O)n[nH]1 | inconclusive: 100%
22 | COc1cc(Cl)c(C)cc1NC(=O)c1ccc(S(C)(=O)=O)cc1 | inconclusive: 101%
23 | CNC1(c2nnnn2-c2c(C)cccc2C)CCOC(C)(C)C1 (centres undefined) | inconclusive: 95.4%
24 | O=C(Cc1nc2ccccc2[nH]c1=O)c1ccccc1 | inconclusive: 99.6%
25 | C(=N\Nc1ccc2nncn2n1)/c1ccccn1 | inconclusive: 64%
26 | COc1ccc(C(=O)N/C(=C\c2ccco2)C(=O)OCc2ccco2)cc1 | inconclusive: 105%
27 | CCOC(=O)c1c(C)nn(-c2ccc(NC(=O)/C=C/C(=O)O)cc2)c1C | inconclusive: 95.9%
28 | CCN(CC)S(=O)(=O)c1ccc(C(=O)OCC(=O)NCCN2C(=O)CSC2=O)cc1 | inconclusive: 122%
29 | O=C(Cc1ccccc1)NS(=O)(=O)c1ccc(N=NN2CCOCC2)cc1 | inactive: 98.3%
30 | O=C(N/C(=C/c1ccc(Cl)cc1)C(=O)N1CCCC1)c1ccccc1 | inconclusive: 121%
31 | CCOC(=O)/C=C(C)\C=C\c1c[nH]c2ccccc12 | inconclusive: 86.2%
32 | CC(=O)Nc1ccc2c(COC(=O)[C@H](C)N3C(=O)C4CCCCC4C3=O)cc(=O)oc2c1 (some centres undefined) | inconclusive: 60.6%
33 | Cc1ccc2nc(N3CCN(c4ccccc4)CC3)c(C=O)c(=O)n2c1 | inconclusive: 101%
34 | COc1ccc(C(=O)CCNc2ccc3c(c2)OCCO3)cc1 | inactive: 96.3%
35 | O=C(Cn1ncc2c3ccccc3n(Cc3ccccc3)c2c1=O)NCc1ccco1 | inconclusive: 71.2%
36 | COc1ccc(C(=O)NC(=S)NCc2ccco2)cc1 | inconclusive: 86.5%
37 | CC1CCCCC1NS(=O)(=O)c1ccc(S(=O)(=O)NCc2ccncc2)cc1 (centres undefined) | inactive: 94.8%
38 | O=C(Nc1ccc(Oc2cccc(C(F)(F)F)c2)nc1)c1ccco1 | inconclusive: -23.1%
39 | NS(=O)(=O)c1ccc(NC=C2C(=O)OC3(CCCCC3)OC2=O)cc1 | inactive: 101%
40 | COC(=O)/C=C1/S/C(=N/NC(=O)c2ccc(Cl)cc2Cl)NC1=O | inconclusive: 168%

Looked up by compound from the entries so far (2):
Row | Structure (SMILES) | binding response (% of control)
32 | CC(=O)Nc1ccc2c(COC(=O)[C@H](C)N3C(=O)C4CCCCC4C3=O)cc(=O)oc2c1 (some centres undefined) | inconclusive: 60.6%
25 | C(=N\Nc1ccc2nncn2n1)/c1ccccn1 | inconclusive: 64%

The list continues.

Row | Structure (SMILES) | binding response (% of control)
41 | O=C(N/N=C/c1ccccn1)C(O)c1ccccc1 (centres undefined) | inconclusive: 79.1%
42 | Cc1ccc(S(=O)(=O)/N=C(/Nc2ccc3[nH]c(=O)[nH]c3c2)c2ccccc2)cc1 | inactive: 104%
43 | COc1cc(/C=N/N(C)C)ccc1OC(=O)c1cccs1 | inconclusive: 111%
44 | CCC(=O)Nc1ccc(C(=O)CSc2nc(N)cc(N)n2)cc1 | inconclusive: 71.8%
45 | O=C(CCC1CCCN(Cc2ccc3c(c2)OCCO3)C1)NCc1ccccc1F (centres undefined) | inconclusive: 101%
46 | CCN1CCN(C(=O)C(C)Nc2cc(Cl)c(OC)cc2OC)CC1 (centres undefined) | inconclusive: 108%
47 | O=C(CSc1nc(O)c(Cc2ccccc2)c(=O)[nH]1)Nc1nc2c(s1)CCCC2 | inconclusive: 115%
48 | C/C(=N\Nc1ccc2nncn2n1)c1ccc(Br)s1 | inconclusive: 108%
49 | Cn1cc(C(=O)N/N=C/c2ccc3c(c2)OCO3)c2ccccc21 | inconclusive: 260%
50 | CN(CC(O)CN1CCOCC1)S(=O)(=O)O (centres undefined) | inconclusive: 124%
51 | Cc1ccc(-c2c[n+](CC(=O)Nc3ccc(C)cc3C)c3n2CCC3)cc1 | inconclusive: -642%
52 | S=C(Nc1ccccc1Oc1ccccc1)NC1CCCC1 | inconclusive: 89.1%
53 | Cc1nnc(SCC(=O)NC(=O)NCc2ccco2)s1 | inconclusive: 99.2%
54 | Cc1cc(Cl)ccc1NC(=S)NCc1cccs1 | inactive: 101%
55 | CC(=O)Nc1cccc(-n2nnc(SCC(=O)c3ccccc3)n2)c1 | inconclusive: 84.2%
56 | Cc1ccc(-c2[nH]c3cc(C(N)=O)ccc3c(=O)c2O)cc1 | inconclusive: 34.5%
57 | COc1ccc(CC(=O)NNC(=O)CCC(=O)Nc2cc(C)ccc2C)cc1 | inconclusive: 81.5%
58 | O=Cc1ccccc1OCc1nnsc1Cl | inactive: 95.2%
59 | CC(=O)Nc1ccc(C(=O)Nc2cc(C(F)(F)F)ccc2-n2cnc3ccccc32)cc1 | inactive: 99.8%
